Results are given in words; binding and its absence hold for the method and conditions named. In cells and extracts the contact can be indirect. Some binding calls cover weakened binding; strength is not graded here.
Molecular target: His-tagged CP47 protein of Photosystem II (Synechocystis sp. PCC 6803, strain HT3) (Synechocystis sp. PCC 6803), P05429
Experiment: pull-down; PSII with His-tagged CP47 purified from Synechocystis 6803 HT3 cells on a Ni-NTA column (washes with 15 and 35 mM imidazole, elution with 100 mM imidazole in buffer A, pH 6.0, 0.04% dodecyl maltoside); the eluted fraction analysed by SDS-PAGE and immunoblot
Conditions: remark: other sources report otherwise

B1: PsbO, extrinsic protein of the PSII oxygen-evolving complex (Synechocystis sp. PCC 6803), P10549 29-274 (protein)
chain: VDKSQLTYDDIVNTGLANVCPEISSFTRGTIEVEPNTKYFVSDFCMEPQEYFVKEEPVNKRQKAEYVKGKVLTRQTTSLEQIRGSIAVGADGTLTFKEKDGIDFQPITVLLPGGEEVPFFFTVKNFTGTTEPGFTSINSSTDFVGDFNVPSYRGAGFLDPKARGLYTGYDNAVALPSAADKFRTNKKETPLGKGTLSLQVTQVDGSTGEIAGIFESEQPSDTDLGAKEPLDVKVRGIFYGRVDTDV
binding: binds
